Source: PubChem BioAssay AID493014 (National Center for Advancing Translational Sciences (NCATS), 2011)
This is one part of the list. Shown are side measurements of this screen, not its main read-out; they come without a call. The list favours compounds with an active or inconclusive main result. Words in brackets tell the shape of the fitted curve; partial curves, single points and poor fits give uncertain potencies.

Assay: qHTS Assay to Find Inhibitors of Chronic Active B-Cell Receptor Signaling
Conditions: ABC-DLBCL IkBa-CBG/CBR reporter, luminescence ratio (green luciferase fused to IkBa over red control in TMD8 lymphoma cells), 4 h
Summary of the method: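 Cell line TMD8 (human ABC DLBCL), stably expressing tet-inducible CBG68-IkBa fusion and CBR; IMDM/0.5% FBS; cpd up to 46 uM; dox induction, 4 h, 37C/5% CO2; dual luminescence; green/red ratio; MG132 control.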

[1] = measured here: CBR red luminescence, cell number
[2] = measured here: IkBa-CBG green luminescence

| Structure (SMILES) | AC50 [1] | AC50 [2] |
| --- | --- | --- |
| COc1ccc(CNC(=O)CN=C2NC(=O)C(c3ccccc3)(c3ccccc3)N2)cc1 | 16.4 µM [rising, partial curve, poor fit] | – |
| COc1ccc(OCC(=O)Nc2ccccc2N2CCCCC2)cc1 | 20 µM [rising, single point] | 22.4 µM [falling, single point] |
| COc1cccc(CNC(=O)c2ccc3c(c2)N(C)CCS3)c1OC | 5.62 µM [falling, partial curve] | – |
| Cc1ccc(S(=O)(=O)CCC(=O)OCC(=O)Nc2cc(C)on2)cc1 | 35.5 µM [falling, single point] | – |
| Cc1ccc2c(c1)-n1c(nc3ccccc3c1=O)C(Cc1ccc(O)cc1)NC2=O (centres undefined) | 16.4 µM [rising, partial curve] | – |
| O=C(c1cccnc1NCc1ccccc1)N1CCOCC1 | 29.1 µM [rising, single point] | – |
| Cc1cc(C)c(C#N)c(OCc2ccc(Cl)nc2)n1 | 12.6 µM [rising, partial curve] | – |
| Clc1ccc(N=c2ssnc2Cl)cc1 | 14.6 µM [falling, single point] | – |
| COc1ccc2c(c1)C(c1ccc(C)o1)=NNC(c1ccccc1)=N2 | 10 µM [falling, partial curve] | – |
| COC(=O)c1ccccc1NC(=O)NCCc1ccc(OC)c(OC)c1 | 35.5 µM [falling, single point] | – |
| C=CCn1c(-c2sc3nc(C)cc(C)c3c2N)n[nH]c1=S | 10 µM [rising, partial curve, poor fit] | – |
| CCOc1ccc(-c2n[nH]c(C)c2-c2ccccc2OC)c(O)c1 | 35.5 µM [falling, single point] | – |
| O=C(Nc1nccs1)c1cccc(NC(=O)C2CC2)c1 | 0.92 µM [falling, partial curve] | – |
| COCCNC(=S)NN=C1CCCCC1 | 35.5 µM [falling, single point] | 25.1 µM [falling, single point] |
| O=C(CCCn1c(=S)[nH]c2cc3c(cc2c1=O)OCO3)NCc1ccccc1Cl | 3.16 µM [falling, single point] | – |
| CC(C)c1ccc(CNNC(=O)c2ccccc2)cc1 | 10 µM [falling, partial curve, poor fit] | – |
| CCOC(=O)c1cnn(-c2nc(-c3ccccc3)cs2)c1C(F)(F)F | 22.4 µM [rising, single point] | – |
| Cc1cccc(NC(=S)NNC(=O)Cc2ccccc2)c1 | 25.9 µM [rising, single point] | – |
| Cc1ccc(NC(=O)CSc2nc(N)c(-c3ccccc3)c(=O)[nH]2)cc1Cl | 15.8 µM [rising, single point] | – |
| Cc1ccc2nc(NC(=S)NC(=O)c3ccco3)sc2c1 | 14.6 µM [falling, partial curve, poor fit] | – |
| Cc1nnc(-c2cccc(Br)c2)c2cn(-c3cccc(Br)c3)nc12 | 15.8 µM [rising, partial curve, poor fit] | – |

2 successive compounds from above, for reference:

| Structure (SMILES) | AC50 [1] | AC50 [2] |
| --- | --- | --- |
| O=C(c1cccnc1NCc1ccccc1)N1CCOCC1 | 29.1 µM [rising, single point] | – |
| Cc1cc(C)c(C#N)c(OCc2ccc(Cl)nc2)n1 | 12.6 µM [rising, partial curve] | – |

Next results follow.

| Structure (SMILES) | AC50 [1] | AC50 [2] |
| --- | --- | --- |
| CCOC(=O)c1c(O)cc(C)cc1Nc1ccccc1 | 11.2 µM [rising, single point] | – |
| Cc1cccn2c(=O)c3cc(C(=O)NC4CCCC4)c(=N)n(C4CCCC4)c3nc12 | 1.84 µM [rising, full curve] | – |
| Cc1nc(-c2cccc(NC(=O)COc3ccc(Cl)cc3)c2)cs1 | 35.5 µM [falling, single point] | – |
| COc1ccc(C(=O)OCC(=O)NCCCc2ccccc2)c(OC)c1 | 35.5 µM [falling, single point] | – |
| O=C(COc1ccc(Cl)cc1)Nc1ccc2c(c1)CCC2 | 1.84 µM [rising, full curve, poor fit] | – |
| CCOCCCNC(=O)c1ccc2c(=O)n(Cc3ccc(OC)cc3)c(=O)[nH]c2c1 | 0.1 µM [rising, full curve, poor fit] | – |
| Cc1c(C(=O)O)sc2c1c(=O)n(Cc1ccccc1)c(=O)n2C | 35.5 µM [falling, single point] | – |
| CCN1CCN(C(=O)NC(c2ccc(C)c(F)c2)C(Cl)Cl)CC1 (centres undefined) | 1.41 µM [falling, full curve] | – |
| COCCNc1ncnc2c1cnn2Cc1ccc(Cl)cc1 | 11.6 µM [rising, partial curve, poor fit] | – |
| CCCN1CCN(C(=O)Cn2nc(CC)n3c(cc4sccc43)c2=O)CC1 | 1.12 µM [rising, full curve, poor fit] | – |
| O=C(N/N=C/c1ccc(N2CCCCC2)o1)C(O)(c1ccccc1)c1ccccc1 | 14.6 µM [falling, partial curve] | – |
| Cc1cc(C)c2[nH]c(C(=O)Nc3ccc4c(c3)OCO4)cc2c1 | 5.01 µM [falling, full curve, poor fit] | – |
| CSc1nc(-c2ccc(Cl)cc2)nn1C(=O)c1ccco1 | 5.8 µM [rising, single point] | – |
| O=c1[nH]cnc2scc(-c3cccs3)c12 | 20.6 µM [falling, single point] | – |
| O=C(O)CC(NC(=O)C1CCCCC1)c1ccc(OC2CCCC2)cc1 (centres undefined) | 35.5 µM [falling, single point] | – |
| Cc1cc(NS(=O)(=O)c2ccc(NC(=S)NC(=O)c3ccccc3)cc2)no1 | 16.4 µM [falling, partial curve, poor fit] | – |
| CCOC(=O)C1CCCN(S(=O)(=O)c2cc3c4c(c2)CCN4C(=O)CC3)C1 (centres undefined) | 6.51 µM [rising, single point] | – |
| Cc1ccnc(SCC(=O)Nc2cccc(S(=O)(=O)N3CCOCC3)c2)n1 | 6.51 µM [rising, partial curve, poor fit] | – |
| CCc1ccc(-c2ccc(C(=O)O)cc2)nc1 | 7.08 µM [falling, partial curve, poor fit] | – |
| CCOC(=O)CC(=O)CSc1nc2c(c(-c3cccs3)c1C#N)CCC2 | 29.1 µM [falling, single point] | – |
| COc1ccc(O)c(CN2CCCC(C(=O)Nc3cccc(-n4cccn4)c3)C2)c1 (centres undefined) | 28.2 µM [falling, single point] | – |
